The results in this text go back to paper PMC9509566.

Sequences of proteins named here, by UniProt entry; tags and fusion partners are left off.
UniProt P06241: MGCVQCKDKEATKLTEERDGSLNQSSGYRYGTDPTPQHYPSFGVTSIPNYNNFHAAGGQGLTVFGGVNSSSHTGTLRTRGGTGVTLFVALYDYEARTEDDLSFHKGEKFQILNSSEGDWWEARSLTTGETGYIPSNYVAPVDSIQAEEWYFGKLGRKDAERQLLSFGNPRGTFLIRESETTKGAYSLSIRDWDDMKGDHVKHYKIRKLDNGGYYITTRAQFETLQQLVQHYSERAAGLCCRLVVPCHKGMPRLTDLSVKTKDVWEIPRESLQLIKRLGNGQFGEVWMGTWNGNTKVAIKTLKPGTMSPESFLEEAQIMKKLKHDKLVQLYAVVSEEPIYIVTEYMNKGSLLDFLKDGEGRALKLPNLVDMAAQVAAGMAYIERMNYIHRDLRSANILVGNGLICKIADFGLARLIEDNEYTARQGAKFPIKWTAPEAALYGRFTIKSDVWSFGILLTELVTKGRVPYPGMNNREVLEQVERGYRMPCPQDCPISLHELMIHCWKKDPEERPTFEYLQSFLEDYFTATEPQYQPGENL

No constants are given. Whether binding was seen depends on the method and setting. In cells and extracts the contact can be indirect. Some binding calls cover weakened binding; strength is not graded here.

The experiment has as its target T1, 2B4 (CD244) (human (endogenous in NK-92)) (UniProt Q9BZW8).
T1 sequence: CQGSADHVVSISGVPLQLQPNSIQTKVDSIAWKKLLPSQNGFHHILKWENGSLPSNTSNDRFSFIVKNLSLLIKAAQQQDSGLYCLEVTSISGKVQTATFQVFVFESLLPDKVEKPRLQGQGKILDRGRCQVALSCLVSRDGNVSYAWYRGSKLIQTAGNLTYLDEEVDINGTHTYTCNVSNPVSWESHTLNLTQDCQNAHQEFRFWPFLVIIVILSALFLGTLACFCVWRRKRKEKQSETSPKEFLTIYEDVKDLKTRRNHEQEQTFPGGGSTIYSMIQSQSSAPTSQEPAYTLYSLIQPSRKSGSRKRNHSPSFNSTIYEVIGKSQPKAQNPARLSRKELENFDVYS
In words: co-IP; endogenous proteins; lysates (IP lysis buffer with protease inhibitors) of NK-92 cells, uninfected, T. gondii infected, or infected and treated with anti-2B4 antibody; IP with 1 ug anti-2B4, anti-SHP-2 or anti-Fyn antibody at 4 C overnight, protein A/G-agarose beads, Western blot. On the technique in general: A western blot detects proteins with antibodies after separation by electrophoresis.

As to “Fyn (from UniProt P06241 1-537) (enzyme)”, the binding entry was “binds”.
